Measurements reported in PubChem BioAssay AID1159578 (Peter MacCallum Cancer Centre, 2015).
Screen: 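siRNA pools altering how lymphatic endothelial cells close a scratch wound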 (primary screen). System: human lymphatic endothelial cells. Reagents: siRNA pool against human genes, 40 nM. Time to read-out: 48 h after transfection. Read-out: 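Cells stained with dye and imaged after a scratch; covered wound area and nuclei counted, duplicates averaged, migration set against mock wells and turned into a robust z-score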. Direction: migration robust z-score: higher = faster migration into the scratch; migration relative to mock: higher = more scratch area covered than mock; nuclei per well: higher = more cells in the well. Hit rule: 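Pools averaging fewer than 3300 nuclei are never called; remaining pools count as changed when migration robust z lies outside -2 to 2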. Calls: active = migration changed; inactive = no migration change, or too few cells.
Here is a random part of about 18,000 reagents. About 1,030 of all reagents (5.7%) count as active. 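Inactive calls also include pools with fewer than 3300 nuclei, whose migration was not assessed.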 The raw values are shown without normalisation. No sequences are given here.

Gene	migration robust z-score	migration class with cell-count check	migration relative to mock	nuclei per well, duplicate mean	Call
GSG1L (GSG1 like)	-0.23	migration z between -2 and 2; enough cells	0.82	5716	inactive
GPR45 (G protein-coupled receptor 45)	-0.39	migration z between -2 and 2; enough cells	0.73	5678	inactive
CTNND1 (catenin delta 1)	-0.58	migration z between -2 and 2; enough cells	0.74	6426	inactive
ZNF277 (zinc finger protein 277)	-1.52	migration z between -2 and 2; enough cells	0.5	6593	inactive
MIGA2 (mitoguardin 2)	-0.57	migration z between -2 and 2; enough cells	0.74	5942	inactive
FUCA1 (alpha-L-fucosidase 1)	1.19	migration z between -2 and 2; enough cells	1.04	4704	inactive
ZFY (zinc finger protein Y-linked)	-0.3	migration z between -2 and 2; enough cells	0.8	5198	inactive
NKD1 (NKD inhibitor of Wnt signaling pathway 1)	-2.36	migration z below -2; enough cells	0.28	5330	active
COMMD1 (copper metabolism domain containing 1)	0.26	migration z between -2 and 2; enough cells	0.96	5550	inactive
CAPS (calcyphosine)	-1.34	migration z between -2 and 2; enough cells	0.54	5438	inactive
ABCA7 (ATP binding cassette subfamily A member 7)	0.44	migration z between -2 and 2; enough cells	0.89	6522	inactive
HCAR3 (hydroxycarboxylic acid receptor 3)	-0.78	migration z between -2 and 2; enough cells	0.66	5464	inactive
DOK4 (docking protein 4)	2.33	migration z above 2; enough cells	1.49	5102	active
FOXS1 (forkhead box S1)	0.05	migration z between -2 and 2; enough cells	0.82	4666	inactive
ZNF695 (zinc finger protein 695)	-0.47	migration z between -2 and 2; enough cells	0.76	6412	inactive
ANO6 (anoctamin 6)	-0.28	migration z between -2 and 2; enough cells	0.81	5774	inactive
SLC35G1	-0.8	migration z between -2 and 2; enough cells	0.68	6376	inactive
MEIOB (meiosis specific with OB-fold)	-1.06	migration z between -2 and 2; enough cells	0.61	5158	inactive
TEX19 (testis expressed 19)	-0.55	migration z between -2 and 2; enough cells	0.74	4348	inactive
RPL27A (ribosomal protein L27a)	-1.68	migration z between -2 and 2; enough cells	0.45	4562	inactive
CRYZ (crystallin zeta)	-0.78	migration z between -2 and 2; enough cells	0.66	6210	inactive
CNTF (ciliary neurotrophic factor)	0.18	migration z between -2 and 2; enough cells	0.84	5852	inactive
CCNB3 (cyclin B3)	0.98	migration z between -2 and 2; enough cells	1	5648	inactive
TFDP1 (transcription factor Dp-1)	0.49	migration z between -2 and 2; enough cells	0.9	4478	inactive
TP53I3 (tumor protein p53 inducible protein 3)	0.44	migration z between -2 and 2; enough cells	0.89	5839	inactive
ZNF585A (zinc finger protein 585A)	-1.64	migration z between -2 and 2; enough cells	0.46	6183	inactive
PSMD1 (proteasome 26S subunit, non-ATPase 1)	-0.22	migration z between -2 and 2; enough cells	0.82	6020	inactive
TMEM50B (transmembrane protein 50B)	-0.06	migration z between -2 and 2; enough cells	0.87	5509	inactive
SLC25A19	-0.7	migration z between -2 and 2; enough cells	0.67	5457	inactive
SNRPB (small nuclear ribonucleoprotein polypeptides B and B1)	1.19	migration z between -2 and 2; enough cells	1.19	5663	inactive
OR7A10 (olfactory receptor family 7 subfamily A member 10)	1.9	migration z between -2 and 2; enough cells	1.38	7096	inactive
ZCCHC13 (zinc finger CCHC-type containing 13)	-0.67	migration z between -2 and 2; enough cells	0.71	6278	inactive
CDA (cytidine deaminase)	-0.18	migration z between -2 and 2; enough cells	0.77	5442	inactive
S100A10 (S100 calcium binding protein A10)	-0.38	migration z between -2 and 2; enough cells	0.78	4934	inactive
MDH2 (malate dehydrogenase 2)	-0.6	migration z between -2 and 2; enough cells	0.69	6624	inactive
DCTN2 (dynactin subunit 2)	0.32	migration z between -2 and 2; enough cells	0.97	6942	inactive
MROH2B (maestro heat like repeat family member 2B)	-0.41	migration z between -2 and 2; enough cells	0.78	4991	inactive
RAD51B (RAD51 paralog B)	1.42	migration z between -2 and 2; enough cells	1.08	5959	inactive
HEXD (hexosaminidase D)	-0.66	migration z between -2 and 2; enough cells	0.72	6012	inactive
IL22 (interleukin 22)	-1.63	migration z between -2 and 2; enough cells	0.46	5572	inactive
DRC3 (dynein regulatory complex subunit 3)	-3.48	migration z below -2; enough cells	-0.04	4704	active
LCE2B (late cornified envelope 2B)	0.38	migration z between -2 and 2; enough cells	0.98	5722	inactive
RWDD1 (RWD domain containing 1)	0.67	migration z between -2 and 2; enough cells	1.06	6306	inactive
METTL2B (methyltransferase 2B, tRNA N3-cytidine)	-0.42	migration z between -2 and 2; enough cells	0.78	5628	inactive
FBXO27 (F-box protein 27)	-1.79	migration z between -2 and 2; enough cells	0.46	5417	inactive
MRPS24 (mitochondrial ribosomal protein S24)	-0.08	migration z between -2 and 2; enough cells	0.86	5504	inactive
TEX9 (testis expressed 9)	-0.37	migration z between -2 and 2; enough cells	0.8	4576	inactive
RPL34 (ribosomal protein L34)	0.6	migration z between -2 and 2; enough cells	1.04	4271	inactive
CD226 (CD226 molecule)	-1.76	migration z between -2 and 2; enough cells	0.43	5339	inactive
MUSK (muscle associated receptor tyrosine kinase)	-5.04	under 3300 nuclei; migration not judged	-0.16	2374	inactive
LOXL2 (lysyl oxidase like 2)	-0.5	migration z between -2 and 2; enough cells	0.71	4348	inactive
CRIP2 (cysteine rich protein 2)	-0.23	migration z between -2 and 2; enough cells	0.82	5290	inactive
ARHGDIG (Rho GDP dissociation inhibitor gamma)	-1.62	migration z between -2 and 2; enough cells	0.46	5220	inactive
STK31 (serine/threonine kinase 31)	-0.44	migration z between -2 and 2; enough cells	0.72	4592	inactive
PAK1 (p21 (RAC1) activated kinase 1)	-2.49	under 3300 nuclei; migration not judged	0.32	3146	inactive
SPCS2P4 (signal peptidase complex subunit 2 pseudogene 4)	-0.01	migration z between -2 and 2; enough cells	0.88	6260	inactive
OR4F6 (olfactory receptor family 4 subfamily F member 6)	-1.22	migration z between -2 and 2; enough cells	0.56	3336	inactive
DCAF8 (DDB1 and CUL4 associated factor 8)	-0.8	migration z between -2 and 2; enough cells	0.68	4588	inactive
FAAH (fatty acid amide hydrolase)	0.2	migration z between -2 and 2; enough cells	0.84	5250	inactive
ZSWIM2 (zinc finger SWIM-type containing 2)	-0.65	migration z between -2 and 2; enough cells	0.68	4878	inactive
ADD2 (adducin 2)	0.64	migration z between -2 and 2; enough cells	1.05	5759	inactive
UBA1 (ubiquitin like modifier activating enzyme 1)	-0.1	migration z between -2 and 2; enough cells	0.78	5002	inactive
DYM (dymeclin)	0.16	migration z between -2 and 2; enough cells	0.92	4306	inactive
MSRB2 (methionine sulfoxide reductase B2)	1.45	migration z between -2 and 2; enough cells	1.08	5812	inactive
NETO1 (neuropilin and tolloid like 1)	0.92	migration z between -2 and 2; enough cells	1.12	6338	inactive
CAPN12 (calpain 12)	-1.53	migration z between -2 and 2; enough cells	0.51	3728	inactive
IMPA1 (inositol monophosphatase 1)	-0.39	migration z between -2 and 2; enough cells	0.73	4894	inactive
ZER1 (zyg-11 related cell cycle regulator)	0.98	migration z between -2 and 2; enough cells	1.14	5750	inactive
PLP2 (proteolipid protein 2)	0.54	migration z between -2 and 2; enough cells	1.02	6036	inactive
COL6A1 (collagen type VI alpha 1 chain)	-1.83	migration z between -2 and 2; enough cells	0.41	4432	inactive
TMEM184B (transmembrane protein 184B)	-1.12	migration z between -2 and 2; enough cells	0.6	5886	inactive
IFITM1 (interferon induced transmembrane protein 1)	0.74	migration z between -2 and 2; enough cells	1.08	5832	inactive
PCDH7 (protocadherin 7)	-1.68	migration z between -2 and 2; enough cells	0.45	5450	inactive

Part of the list above, showing only “nuclei per well, duplicate mean”:
ADD2 (adducin 2): 5759
UBA1 (ubiquitin like modifier activating enzyme 1): 5002
DYM (dymeclin): 4306
MSRB2 (methionine sulfoxide reductase B2): 5812
NETO1 (neuropilin and tolloid like 1): 6338
CAPN12 (calpain 12): 3728
IMPA1 (inositol monophosphatase 1): 4894
ZER1 (zyg-11 related cell cycle regulator): 5750
PLP2 (proteolipid protein 2): 6036
COL6A1 (collagen type VI alpha 1 chain): 4432
TMEM184B (transmembrane protein 184B): 5886
